Values of other authors as cited in US10197579B2, “Methods for measurement of inhibition of c-Jun N-terminal kinase in skin” (Signal Pharmaceuticals, LLC, priority 2014, dated 2019).
For at least one compound, name, drawing or mass did not settle the structure.

Test system: Kupffer cells
Settings: Kupffer cells from wild-type mice treated with the JNK inhibitor; cited from earlier work

Oc1c2ccccc2c2c3c(cccc13)N=N2 [SP600125]
TNF, IL-6, and IL-1 expression in response to LPS: reduced TNF, IL-6, and IL-1 expression
